According to article PMC3218035, “Nuclear Exportin Receptor CAS Regulates the NPI-1–Mediated Nuclear Import of HIV-1 Vpr” (PLoS ONE, 2011):
These are yes or no findings as the source states them, for the method shown. Some results given as binding are weak or reduced against the parent protein; the word gives no strength.

Sequences of proteins named here, by UniProt entry; tags and fusion partners are left off. A change or cut given only in a name is not applied to a line headed by its entry. Residues count along the entry.
UniProt O00629: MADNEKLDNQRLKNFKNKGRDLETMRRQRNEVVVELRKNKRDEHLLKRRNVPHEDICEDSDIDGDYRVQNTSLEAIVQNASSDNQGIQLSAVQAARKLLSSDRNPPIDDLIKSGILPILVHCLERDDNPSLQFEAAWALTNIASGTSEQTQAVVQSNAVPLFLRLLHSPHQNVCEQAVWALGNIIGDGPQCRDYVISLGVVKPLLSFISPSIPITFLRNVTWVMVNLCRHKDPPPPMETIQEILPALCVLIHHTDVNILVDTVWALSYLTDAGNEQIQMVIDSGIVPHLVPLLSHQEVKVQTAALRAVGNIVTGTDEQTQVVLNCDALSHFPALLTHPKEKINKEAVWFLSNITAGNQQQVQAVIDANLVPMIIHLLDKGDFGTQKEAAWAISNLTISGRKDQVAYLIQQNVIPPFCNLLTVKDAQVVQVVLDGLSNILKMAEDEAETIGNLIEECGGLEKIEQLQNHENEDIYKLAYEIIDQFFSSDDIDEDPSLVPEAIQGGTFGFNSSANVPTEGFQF
GST-Qip1 1–68 (IBB domain mutant): residues 1-67 of O00629
GST-Qip1 69–439 (ARM repeat domain lacking the tenth ARM repeat): residues 68-439 of O00629
GST-Qip1 392–537 (C-terminal region from the ninth ARM repeat to the acidic domain): residues 392-521 of O00629
UniProt P52294: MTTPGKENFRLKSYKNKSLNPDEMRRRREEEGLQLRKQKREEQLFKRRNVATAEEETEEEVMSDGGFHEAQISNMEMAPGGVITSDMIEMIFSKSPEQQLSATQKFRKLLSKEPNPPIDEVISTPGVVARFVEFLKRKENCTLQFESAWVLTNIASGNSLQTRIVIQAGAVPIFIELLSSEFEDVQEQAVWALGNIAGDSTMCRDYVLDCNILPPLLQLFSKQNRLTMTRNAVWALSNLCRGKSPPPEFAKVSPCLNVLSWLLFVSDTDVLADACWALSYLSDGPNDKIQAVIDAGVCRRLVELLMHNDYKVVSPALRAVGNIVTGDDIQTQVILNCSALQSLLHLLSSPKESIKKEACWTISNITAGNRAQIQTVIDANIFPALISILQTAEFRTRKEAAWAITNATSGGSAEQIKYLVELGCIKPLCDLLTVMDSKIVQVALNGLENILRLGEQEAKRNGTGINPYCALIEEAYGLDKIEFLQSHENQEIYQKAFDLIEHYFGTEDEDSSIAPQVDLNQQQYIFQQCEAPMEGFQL
GST-NPI-1 1–75 (IBB domain mutant): residues 1-75 of P52294
GST-NPI-1 76–451 (ARM repeat domain lacking the tenth ARM repeat): residues 76-451 of P52294
GST-NPI-1 404–541 (C-terminal region from the ninth ARM repeat to the acidic domain): residues 404-538 of P52294
UniProt P12520: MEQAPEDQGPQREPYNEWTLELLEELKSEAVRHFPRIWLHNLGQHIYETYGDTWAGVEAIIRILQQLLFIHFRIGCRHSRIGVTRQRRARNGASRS

Key:
Assay in all cases: pull-down; both purified
[1] = target: GST-Qip1 1–68 (IBB domain mutant) (human) (UniProt O00629)
[2] = target: GST-NPI-1 1–75 (IBB domain mutant) (human) (UniProt P52294)
[3] = target: GST-Qip1 69–439 (ARM repeat domain lacking the tenth ARM repeat) (human) (UniProt O00629)
[4] = target: GST-tagged NPI-1 (importin α5), full-length (human) (UniProt P52294)
[5] = target: GST-NPI-1 404–541 (C-terminal region from the ninth ARM repeat to the acidic domain) (human) (UniProt P52294)
[6] = target: GST-Qip1 392–537 (C-terminal region from the ninth ARM repeat to the acidic domain) (human) (UniProt O00629)
[7] = target: GST-NPI-1 76–451 (ARM repeat domain lacking the tenth ARM repeat) (human) (UniProt P52294)
[8] = target: GST-tagged Qip1 (importin α3), full-length (human) (UniProt O00629)

Measured: binding

Flag-mRFP-Flag-Vpr (from UniProt P12520 1-96)
binds: [1] | [2] | [3] | [4] | [5] | [6] | [7] | [8]
